# Results: article PMC12287301
# Amino acid sequences for entries named in this document (tags omitted). A change or cut given only in a name is not applied to a line headed by its entry.
# UniProt Q9CAG8: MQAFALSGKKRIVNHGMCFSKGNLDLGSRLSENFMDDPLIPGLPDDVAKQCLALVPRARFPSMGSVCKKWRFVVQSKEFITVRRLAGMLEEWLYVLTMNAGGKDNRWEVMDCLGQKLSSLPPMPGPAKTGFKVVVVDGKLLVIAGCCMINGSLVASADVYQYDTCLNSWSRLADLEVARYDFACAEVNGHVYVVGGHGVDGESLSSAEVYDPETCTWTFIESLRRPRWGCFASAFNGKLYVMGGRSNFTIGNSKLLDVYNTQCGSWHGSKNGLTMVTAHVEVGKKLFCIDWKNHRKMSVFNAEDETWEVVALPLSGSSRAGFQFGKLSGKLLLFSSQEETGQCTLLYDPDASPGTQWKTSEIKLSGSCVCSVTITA
# UniProt Q93Z00: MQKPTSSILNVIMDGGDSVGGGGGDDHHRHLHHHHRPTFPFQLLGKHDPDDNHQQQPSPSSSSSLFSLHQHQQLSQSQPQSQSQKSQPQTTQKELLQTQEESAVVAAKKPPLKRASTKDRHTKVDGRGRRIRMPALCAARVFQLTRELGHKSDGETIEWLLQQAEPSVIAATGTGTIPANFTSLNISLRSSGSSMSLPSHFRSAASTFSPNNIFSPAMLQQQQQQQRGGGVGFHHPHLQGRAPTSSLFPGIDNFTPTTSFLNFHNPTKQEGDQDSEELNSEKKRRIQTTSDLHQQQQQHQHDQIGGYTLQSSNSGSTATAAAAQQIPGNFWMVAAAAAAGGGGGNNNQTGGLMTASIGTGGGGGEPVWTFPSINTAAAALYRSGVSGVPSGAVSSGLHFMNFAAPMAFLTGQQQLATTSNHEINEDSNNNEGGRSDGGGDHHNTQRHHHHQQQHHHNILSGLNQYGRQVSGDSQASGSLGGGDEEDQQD
# UniProt Q9FTA2: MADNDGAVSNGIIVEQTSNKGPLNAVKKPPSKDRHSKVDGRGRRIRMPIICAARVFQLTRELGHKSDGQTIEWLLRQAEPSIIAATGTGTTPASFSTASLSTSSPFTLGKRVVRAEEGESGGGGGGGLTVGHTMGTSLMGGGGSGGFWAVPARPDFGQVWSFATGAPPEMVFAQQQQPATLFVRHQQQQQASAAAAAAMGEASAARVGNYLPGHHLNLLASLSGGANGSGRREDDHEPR
# These are yes or no findings as the source states them, for the method shown. Binding seen in cells or lysates may run through a third protein. A result given as binding can be weak or reduced; the word gives no strength. For some of these results: Where a sequence is shown, tags or fusion partners need not be part of it.
# Assays:
# [1] = molecular target: T1, GFP-DSK2B (Arabidopsis thaliana) (UniProt Q9SII8); assay: co-IP; seven-day-old Arabidopsis seedlings; IP buffer (50 mM Tris-HCl pH 7.5, 150 mM NaCl, 1 mM MgCl2, 0.1% NP40); anti-GFP affinity beads, 4 C, 2 h; blots anti-GFP and anti-HA or anti-DSK2
# T1 sequence: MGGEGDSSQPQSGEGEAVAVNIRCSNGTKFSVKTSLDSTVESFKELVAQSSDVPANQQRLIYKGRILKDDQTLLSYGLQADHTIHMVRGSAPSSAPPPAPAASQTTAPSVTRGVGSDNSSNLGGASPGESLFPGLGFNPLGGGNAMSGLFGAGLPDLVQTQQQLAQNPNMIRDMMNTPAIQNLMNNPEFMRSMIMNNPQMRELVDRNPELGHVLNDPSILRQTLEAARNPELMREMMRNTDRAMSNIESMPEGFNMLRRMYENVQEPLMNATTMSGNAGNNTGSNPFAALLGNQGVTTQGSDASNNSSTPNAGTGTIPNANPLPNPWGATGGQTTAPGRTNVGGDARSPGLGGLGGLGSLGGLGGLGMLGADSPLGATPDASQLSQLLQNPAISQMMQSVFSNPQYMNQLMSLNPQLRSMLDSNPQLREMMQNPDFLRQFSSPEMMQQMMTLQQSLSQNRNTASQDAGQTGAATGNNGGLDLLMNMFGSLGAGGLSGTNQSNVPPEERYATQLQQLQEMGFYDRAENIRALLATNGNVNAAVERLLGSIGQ
# [2] = molecular target: LAO1-YN (Arabidopsis thaliana) (UniProt Q9CAG8); assay: split reporter; BiFC: LAO1-YN co-infiltrated with TCP14-YC or TCP21-YC into leaves of 1-month-old N. benthamiana; YFP signal after 48 h by confocal microscopy
# [3] = molecular target: HA-LAO1 (Arabidopsis thaliana) (UniProt Q9CAG8); assay: pull-down; semi-in vivo pull-down: HA-LAO1 enriched from 35S: HA-LAO1 seedling extract on anti-HA affinity beads, washed, mixed with 1 ug purified His-tagged protein for 3 h at 4 C in IP buffer (50 mM Tris-HCl pH 7.5, 150 mM NaCl, 1 mM MgCl2, 0.1% NP40); blots anti-His and anti-HA; only the binder purified
binding [2],Substance,further results
–,HA-LAO1 (from UniProt Q9CAG8),binding [1]: binds
binds,TCP14-YC (from UniProt Q93Z00 1-489),–
binds,TCP21-YC (from UniProt Q9FTA2 1-239),–
–,His-TCP14 (from UniProt Q93Z00 1-489),binding [3]: binds
